Data on two substances can be found in article doi:10.1101/2025.02.27.640530.

Sequences of proteins named here, by UniProt entry; tags and fusion partners are left off.
UniProt P63208: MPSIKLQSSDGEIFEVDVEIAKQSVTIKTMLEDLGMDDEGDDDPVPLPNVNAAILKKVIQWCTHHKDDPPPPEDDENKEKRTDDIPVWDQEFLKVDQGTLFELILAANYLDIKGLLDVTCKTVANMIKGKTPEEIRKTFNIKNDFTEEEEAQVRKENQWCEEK
UniProt Q14999: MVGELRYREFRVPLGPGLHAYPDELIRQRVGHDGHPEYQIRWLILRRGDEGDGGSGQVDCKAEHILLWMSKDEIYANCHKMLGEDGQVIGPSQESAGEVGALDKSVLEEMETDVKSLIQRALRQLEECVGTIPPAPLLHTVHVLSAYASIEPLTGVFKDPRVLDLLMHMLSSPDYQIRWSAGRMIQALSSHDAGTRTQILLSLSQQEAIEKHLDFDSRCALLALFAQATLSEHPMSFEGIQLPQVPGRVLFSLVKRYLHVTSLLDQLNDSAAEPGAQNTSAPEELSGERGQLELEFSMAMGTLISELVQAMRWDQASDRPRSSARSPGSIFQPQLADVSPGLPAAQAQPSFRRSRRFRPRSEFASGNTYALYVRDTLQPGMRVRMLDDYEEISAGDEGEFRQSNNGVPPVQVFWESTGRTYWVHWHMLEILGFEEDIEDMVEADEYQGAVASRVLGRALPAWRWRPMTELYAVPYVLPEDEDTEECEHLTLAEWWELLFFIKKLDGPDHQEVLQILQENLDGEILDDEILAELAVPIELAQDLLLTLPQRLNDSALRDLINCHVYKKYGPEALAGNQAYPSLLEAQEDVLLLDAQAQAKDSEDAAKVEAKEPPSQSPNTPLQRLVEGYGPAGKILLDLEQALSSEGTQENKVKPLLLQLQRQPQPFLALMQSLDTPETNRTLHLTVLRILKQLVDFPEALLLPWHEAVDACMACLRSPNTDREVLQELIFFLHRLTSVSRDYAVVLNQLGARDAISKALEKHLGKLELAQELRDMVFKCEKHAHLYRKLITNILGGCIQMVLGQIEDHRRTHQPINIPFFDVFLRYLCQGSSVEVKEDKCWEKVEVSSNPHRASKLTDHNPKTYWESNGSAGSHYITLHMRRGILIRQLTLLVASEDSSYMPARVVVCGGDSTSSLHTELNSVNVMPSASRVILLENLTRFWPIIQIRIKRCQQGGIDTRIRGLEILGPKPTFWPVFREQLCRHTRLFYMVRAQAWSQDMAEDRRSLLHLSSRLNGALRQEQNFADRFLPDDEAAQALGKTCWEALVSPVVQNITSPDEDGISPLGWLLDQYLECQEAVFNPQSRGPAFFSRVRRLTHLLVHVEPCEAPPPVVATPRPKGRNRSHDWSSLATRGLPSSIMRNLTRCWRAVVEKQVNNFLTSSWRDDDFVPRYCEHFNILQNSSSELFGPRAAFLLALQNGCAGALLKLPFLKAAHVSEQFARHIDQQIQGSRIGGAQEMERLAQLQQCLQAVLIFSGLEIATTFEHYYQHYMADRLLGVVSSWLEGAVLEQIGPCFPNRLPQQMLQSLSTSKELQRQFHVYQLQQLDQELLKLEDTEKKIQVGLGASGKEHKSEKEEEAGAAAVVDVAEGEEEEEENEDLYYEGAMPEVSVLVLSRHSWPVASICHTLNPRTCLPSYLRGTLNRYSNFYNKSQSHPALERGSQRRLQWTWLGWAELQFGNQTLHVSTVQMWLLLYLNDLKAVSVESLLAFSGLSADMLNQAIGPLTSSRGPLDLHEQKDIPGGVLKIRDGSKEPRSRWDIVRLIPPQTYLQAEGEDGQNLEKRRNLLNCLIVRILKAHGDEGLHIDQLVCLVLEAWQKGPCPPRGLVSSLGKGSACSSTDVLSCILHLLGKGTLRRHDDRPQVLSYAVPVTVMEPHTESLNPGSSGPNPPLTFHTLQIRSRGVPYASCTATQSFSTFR

These are yes or no findings as the source states them, for the method shown. Binding seen in cells or lysates may run through a third protein. Some entries that bind do so weakly or less than the wild type. Tags and fused reporters may be left off the sequences shown.

The assay addresses T1, FLAG-tagged NUMB (UniProt P49757).
T1 sequence: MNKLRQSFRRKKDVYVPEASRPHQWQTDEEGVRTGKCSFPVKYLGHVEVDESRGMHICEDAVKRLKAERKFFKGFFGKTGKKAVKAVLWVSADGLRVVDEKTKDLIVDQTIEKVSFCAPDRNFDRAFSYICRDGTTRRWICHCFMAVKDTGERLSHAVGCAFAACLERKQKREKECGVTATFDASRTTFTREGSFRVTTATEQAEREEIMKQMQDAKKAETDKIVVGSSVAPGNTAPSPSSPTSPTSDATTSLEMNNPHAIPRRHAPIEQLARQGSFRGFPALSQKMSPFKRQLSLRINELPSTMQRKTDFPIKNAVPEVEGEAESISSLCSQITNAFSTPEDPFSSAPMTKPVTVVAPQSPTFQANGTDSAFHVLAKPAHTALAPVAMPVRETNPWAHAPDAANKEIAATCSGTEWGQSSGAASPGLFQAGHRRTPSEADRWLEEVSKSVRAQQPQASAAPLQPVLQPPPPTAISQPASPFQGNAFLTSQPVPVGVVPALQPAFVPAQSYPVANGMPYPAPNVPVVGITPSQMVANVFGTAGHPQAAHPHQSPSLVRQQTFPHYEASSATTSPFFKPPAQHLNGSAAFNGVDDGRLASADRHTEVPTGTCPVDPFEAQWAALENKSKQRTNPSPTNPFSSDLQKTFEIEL
The experiment in a line: co-IP.

With SKP1 (from UniProt P63208 1-163), the binding result is listed as “binds”.
In the case of CUL7 (from UniProt Q14999 1-1698) it was “binds”.
